Some of these results come from one statement about several compounds together. At least one structure is not confirmed: it was looked up by name or label, or the drawing left a doubt.
The compounds below were run on DBTRG-05MG glioblastoma cell line (assay: Renilla read out (TA-Renilla, Wnt-independent internal control for cell number and toxicity)). Details: TA-Renilla luciferase, 24 hours after compound addition.
Type: cell-based

SMILES	effect in the renilla read out
COc1cc2c(cc1F)n(C)c(=O)n2C[C@H]1CC[C@H](C(=O)Nc2ccncn2)CC1 [Example 159]	negligible effect
COc1ccc2c(c1)n(C[C@H]1CC[C@H](C(=O)N3CCN(c4ncc(Br)cn4)CC3)CC1)c(=O)n2C [Example 80]	negligible effect
Cn1c(=O)n(C[C@H]2CC[C@H](C(=O)N3CCN(c4ncccn4)CC3)CC2)c2c(Cl)cccc21 [Example 21]	negligible effect
COc1ccc2c(c1)n(C[C@H]1CC[C@H](c3nnc(-c4cc(C)on4)o3)CC1)c(=O)n2C [Example 131]	negligible effect
COc1ccc2c(c1)n(C[C@H]1CC[C@H](C(=O)Nc3ccn(C)n3)CC1)c(=O)n2C [Example 133]	negligible effect
COc1ccc2c(c1)n(C[C@H]1CC[C@H](c3cc(-c4ccncc4)n[nH]3)CC1)c(=O)n2C [Example 13, 5-Methoxy-1-methyl-3-[trans-4-(5-pyridin-4-yl-2H-pyrazol-3-yl)-cyclohexylmethyl]-1,3-dihydro-benzoimidazol-2-one]	negligible effect
COc1ccc2c(c1)n(C[C@H]1CC[C@H](C(=O)Nc3ccncc3F)CC1)c(=O)n2C [Example 38]	negligible effect
COc1ccc2c(c1)n(C[C@H]1CC[C@H](C(=O)N3CCN(c4cc(C)no4)CC3)CC1)c(=O)n2C [Example 144]	negligible effect
COc1ccc2c(c1)n(C[C@H]1CC[C@H](C(=O)N3CC4(COC4)C3)CC1)c(=O)n2C [Example 95]	negligible effect
COc1ccc2c(c1)n(C[C@H]1CC[C@H](C(=O)N3CCNC(=O)C3)CC1)c(=O)n2C [Example 105]	negligible effect
COc1ccc2c(c1)n(C[C@H]1CC[C@H](c3nnc(-c4c(C)nn(C)c4C)o3)CC1)c(=O)n2C [Example 148]	negligible effect
Cn1c(=O)n(C[C@H]2CC[C@H](C(=O)N3CCN(c4nccs4)CC3)CC2)c2ccc(Cl)cc21 [Example 54]	negligible effect
COCCOc1ccc2c(n1)n(C[C@H]1CC[C@H](C(=O)Nc3ccnnc3)CC1)c(=O)n2C [Example 173]	negligible effect
Cn1c(=O)n(C[C@H]2CC[C@H](C(=O)Nc3ccncc3)CC2)c2cc(OCCCC#N)ccc21 [Example 136]	negligible effect
Cc1cnccc1NC(=O)[C@H]1CC[C@H](Cn2c(=O)n(C)c3ccc(C4CC4)cc32)CC1 [Example 70]	negligible effect
COc1cc2c(cc1F)n(C)c(=O)n2C[C@H]1CC[C@H](c2nnc(-c3cnn(C)c3)o2)CC1 [Example 182]	negligible effect
Cc1cc(NC(=O)[C@H]2CC[C@H](Cn3c(=O)n(C)c4c(Cl)cccc43)CC2)ccn1 [Example 49]	negligible effect
COc1ccc2c(c1)n(C[C@H]1CC[C@H](C(=O)N3CCN(c4ccnc(F)c4)CC3)CC1)c(=O)n2C [Example 79]	negligible effect
COc1cc(NC(=O)[C@H]2CC[C@H](Cn3c(=O)n(C)c4c(Cl)cccc43)CC2)ccn1 [Example 58]	negligible effect
Cn1c(=O)n(C[C@H]2CC[C@H](C(=O)N3CCN(c4ncccn4)CC3)CC2)c2cc(C(F)(F)F)ccc21 [Example 25]	negligible effect

SMILES	effect in the renilla read out
COCC#Cc1ccc2c(n1)n(C[C@H]1CC[C@H](C(=O)N3CCN(C(C)=O)CC3)CC1)c(=O)n2C [Example 102]	negligible effect
COCCOc1cc(NC(=O)[C@H]2CC[C@H](Cn3c(=O)n(C)c4ccc(OC)cc43)CC2)ccn1 [Example 36]	negligible effect
COCCOc1cc2c(cc1F)n(C)c(=O)n2C[C@H]1CC[C@H](C(=O)Nc2ccnnc2)CC1 [Example 176]	negligible effect
COCCOc1ccc2c(c1)n(C[C@H]1CC[C@H](C(=O)Nc3ccnnc3)CC1)c(=O)n2C [Example 121]	negligible effect
COc1ccc2c(c1)n(C[C@H]1CC[C@H](C(=O)Nc3ccncn3)CC1)c(=O)n2C [Example 104]	negligible effect
COc1ccc2c(c1)n(C[C@H]1CC[C@H](c3nnc(-c4ccncc4)o3)CC1)c(=O)n2C [Example 97]	negligible effect
Cn1c(=O)n(C[C@H]2CC[C@H](C(=O)Nc3ccncc3)CC2)c2nc(OCC3CCCCO3)ccc21 (stereo partly shown) [Example 168]	negligible effect
COCCOc1ccc2c(c1)n(C[C@H]1CC[C@H](c3nnc(-c4cccnn4)o3)CC1)c(=O)n2C [Example 163]	negligible effect
COc1ccc2c(c1)n(C[C@H]1CC[C@H](C(=O)N3CCC(c4ncccn4)CC3)CC1)c(=O)n2C [Example 82]	negligible effect
Cc1cc(NC(=O)[C@H]2CC[C@H](Cn3c(=O)n(C)c4ccc(Cl)cc43)CC2)ccn1 [Example 39]	negligible effect
Cn1c(=O)n(C[C@H]2CC[C@H](C(=O)Nc3ccncc3)CC2)c2cc(OCc3ccncc3)ccc21 [Example 151]	negligible effect
COc1ccc2c(c1)n(C[C@H]1CC[C@H](C(=O)N3CCN(c4nccc(OC)n4)CC3)CC1)c(=O)n2C [Example 51]	negligible effect
COc1cc2c(cc1F)n(C)c(=O)n2C[C@H]1CC[C@H](c2nnc(-c3cccnc3)o2)CC1 [Example 175]	negligible effect
COc1ccc2c(c1)n(C[C@H]1CC[C@H](C(=O)N3CCN(c4cccc(OC)n4)CC3)CC1)c(=O)n2C [Example 65]	negligible effect
Cn1c(=O)n(C[C@H]2CC[C@H](C(=O)Nc3ccncc3)CC2)c2ncccc21 [Example 142]	negligible effect
COc1ccc2c(c1)n(C[C@H]1CC[C@H](C(=O)N3CCN(c4ccc(C#N)nc4)CC3)CC1)c(=O)n2C [Example 88]	negligible effect
COc1ccc2c(c1)n(C[C@H]1CC[C@H](C(=O)N3CCN(c4ccnc(OC)c4)CC3)CC1)c(=O)n2C [Example 91]	negligible effect
CN(C)c1ccc2c(n1)n(C[C@H]1CC[C@H](C(=O)Nc3ccncc3)CC1)c(=O)n2C [Example 120]	negligible effect
COc1ccc2c(c1)n(C[C@H]1CC[C@H](C(=O)Nc3nc4ccccc4s3)CC1)c(=O)n2C [Example 187]	negligible effect
COc1ccc2c(c1)n(C[C@H]1CC[C@H](c3nnc(-c4csc(C)n4)o3)CC1)c(=O)n2C [Example 99]	negligible effect

SMILES	effect in the renilla read out
Cn1c(=O)n(C[C@H]2CC[C@H](C(=O)Nc3ccncc3)CC2)c2cc(OCCC=C(F)F)ccc21 [Example 138]	negligible effect
Cn1c(=O)n(C[C@H]2CC[C@H](c3nnc(-c4cccnc4)o3)CC2)c2cc(C#N)ccc21 [Example 124]	negligible effect
COc1ccc2c(c1)n(C[C@H]1CC[C@H](C(=O)N3CCN(C(=O)[C@H]4CCC(=O)O4)CC3)CC1)c(=O)n2C [Example 75]	negligible effect
COc1ccc2c(c1)n(C[C@H]1CC[C@H](C(=O)Nc3ccc(N4C[C@@H](C)O[C@@H](C)C4)nc3)CC1)c(=O)n2C [Example 64]	negligible effect
Cn1cc(C2=CCN(C(=O)[C@H]3CC[C@H](Cn4c(=O)n(C)c5ccc(C#N)cc54)CC3)CC2)cn1 [Example 154]	negligible effect
Cn1cc(C2=CCN(C(=O)[C@H]3CC[C@H](Cn4c(=O)n(C)c5ccc(OC(F)F)cc54)CC3)CC2)cn1 [Example 166]	negligible effect
Cn1c(=O)n(C[C@H]2CC[C@H](C(=O)N3CCN(c4nccs4)CC3)CC2)c2cc(C(F)(F)F)ccc21 [Example 24]	negligible effect
COc1ccc2c(c1)n(C[C@H]1CC[C@H](c3nnc(-c4cccnc4)o3)CC1)c(=O)n2C [Example 96]	negligible effect
COCCOc1ccc2c(n1)n(C[C@H]1CC[C@H](C(=O)N3CCN(c4cnn(C)c4)CC3)CC1)c(=O)n2C [Example 174]	negligible effect
COC/C=C/c1ccc2c(n1)n(C[C@H]1CC[C@H](C(=O)N3CCN(C(C)=O)CC3)CC1)c(=O)n2C [Example 4, 3-[Trans-4-(4-Acetyl-piperazine-1-carbonyl)-cyclohexylmethyl]-5-((E)-3-methoxy-propenyl)-1-methyl-1,3-dihydro-imidazo[4,5-b]pyridin-2-one]	negligible effect
COc1ccc2c(c1)n(C[C@H]1CC[C@H](C(=O)Nc3cccc4ncccc34)CC1)c(=O)n2C [Example 188]	negligible effect
COc1ccc2c(c1)n(C[C@H]1CC[C@H](C(=O)N3CCN(c4ccn(C)n4)CC3)CC1)c(=O)n2C [Example 132]	negligible effect
Cn1c(=O)n(C[C@H]2CC[C@H](C(=O)N3CCN(c4ncccn4)CC3)CC2)c2cc(Cl)ccc21 [Example 47]	negligible effect
Cn1c(=O)n(C[C@H]2CC[C@H](C(=O)N3CCN(c4nccs4)CC3)CC2)c2cc(Cl)ccc21 [Example 53]	negligible effect
CC(=O)N1CCN(C(=O)[C@H]2CC[C@H](Cn3c(=O)n(C)c4ccc(O)cc43)CC2)CC1 [Example 16, 3-[trans-4-(4-Acetyl-piperazine-1-carbonyl)-cyclohexylmethyl]-5-hydroxy-1-methyl-1,3-dihydro-benzoimidazol-2-one]	negligible effect
COCCOc1ccc2c(c1)n(C[C@H]1CC[C@H](C(=O)N3CC=C(c4cnn(C)c4)CC3)CC1)c(=O)n2C [Example 130]	negligible effect
COc1ccc2c(c1)n(C[C@H]1CC[C@H](C(=O)Nc3cncnc3)CC1)c(=O)n2C [Example 103]	negligible effect
COC/C=C/c1ccc2c(n1)n(C[C@H]1CC[C@H](C(=O)Nc3ccncc3)CC1)c(=O)n2C [Example 114]	negligible effect

Source: US20140005164A1, “WNT PATHWAY ANTAGONISTS” (Siena Biotech S.p.A., priority 2011, published 2014)
